Measured values from publication PMC5570908.
No constants are given. Whether binding was seen depends on the method and setting. In cells and extracts the contact can be indirect. Binding can be weak; no strength is given.

Sequences of proteins named here, by UniProt entry; tags and fusion partners are left off. A change or cut given only in a name is not applied to a line headed by its entry.
UniProt Q9HCE7: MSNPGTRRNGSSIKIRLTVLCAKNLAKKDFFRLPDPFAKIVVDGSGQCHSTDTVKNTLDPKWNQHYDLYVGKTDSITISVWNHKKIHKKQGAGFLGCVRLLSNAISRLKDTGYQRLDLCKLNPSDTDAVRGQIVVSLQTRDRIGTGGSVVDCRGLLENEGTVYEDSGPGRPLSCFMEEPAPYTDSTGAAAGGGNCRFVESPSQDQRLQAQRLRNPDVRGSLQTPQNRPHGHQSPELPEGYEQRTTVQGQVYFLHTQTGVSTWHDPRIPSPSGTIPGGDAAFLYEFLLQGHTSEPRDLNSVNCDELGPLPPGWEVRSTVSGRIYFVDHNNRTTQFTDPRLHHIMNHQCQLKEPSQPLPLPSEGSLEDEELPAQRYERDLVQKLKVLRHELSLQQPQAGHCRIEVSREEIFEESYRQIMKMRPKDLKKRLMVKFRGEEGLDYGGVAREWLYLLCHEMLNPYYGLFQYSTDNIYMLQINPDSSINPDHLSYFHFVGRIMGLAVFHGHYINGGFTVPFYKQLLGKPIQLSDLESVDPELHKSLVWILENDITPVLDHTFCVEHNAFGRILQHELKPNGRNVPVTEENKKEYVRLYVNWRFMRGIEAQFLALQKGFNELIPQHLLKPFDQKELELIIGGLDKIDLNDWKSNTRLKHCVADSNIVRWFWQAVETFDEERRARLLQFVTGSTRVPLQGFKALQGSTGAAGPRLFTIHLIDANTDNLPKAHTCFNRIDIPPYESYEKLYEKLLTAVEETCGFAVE
UniProt P84022: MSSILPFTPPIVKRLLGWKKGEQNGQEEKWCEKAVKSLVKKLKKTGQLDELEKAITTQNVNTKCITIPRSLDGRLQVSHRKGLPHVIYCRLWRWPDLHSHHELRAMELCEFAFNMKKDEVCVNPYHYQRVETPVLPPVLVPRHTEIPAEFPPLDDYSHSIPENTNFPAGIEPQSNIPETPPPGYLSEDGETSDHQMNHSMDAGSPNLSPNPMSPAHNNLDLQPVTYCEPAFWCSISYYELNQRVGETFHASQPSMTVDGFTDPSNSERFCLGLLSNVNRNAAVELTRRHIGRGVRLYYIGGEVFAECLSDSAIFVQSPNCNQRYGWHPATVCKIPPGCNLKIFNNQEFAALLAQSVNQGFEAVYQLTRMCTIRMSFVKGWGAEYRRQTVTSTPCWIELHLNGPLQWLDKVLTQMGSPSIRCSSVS

Target: Flag-Smurf1 (UniProt Q9HCE7)
Assay: co-IP; MDA-MB-231 cells transfected with Flag-Smurf1 and Myc-Smad3; MG132 (20 µM) for 8 h before harvest; HEPES lysis buffer (20 mM HEPES pH 7.2, 50 mM NaCl, 0.5% Triton X-100, 1 mM NaF, 1 mM dithiothreitol); antibody 3 h at 4 °C, protein A/G-plus agarose; western blot (anti-Myc-HRP to detect Smad3)

Q: For Myc-Smad3 (from UniProt P84022 1-425), which binding is on record?
A: binds
